PubChem BioAssay AID602196 | INSERM | 2012

- Screen: 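Knock-downs that protect lung cancer cells from cisplatin or sensitise them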
- System: human A549 lung cancer cells
- Knock-down reagent: siRNA pair against human genes
- Duration: 48 h transfection before cisplatin; time from cisplatin to read-out not stated
- Conditions: cisplatin at a dose killing half of control-siRNA cells; exact dose and duration not given
- Read-out: 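Shift in cisplatin death relative to control siRNA, from -50 (all cells die) to +50 (no cells die); siRNAs harmful on their own scored 0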
- Reading the numbers: two-siRNA summed score (-2 to +2): higher = both siRNAs protect from cisplatin killing; -2 means both sensitise; mean protection from cisplatin (shift in death) and protection from cisplatin (shift in death), siRNA C and protection from cisplatin (shift in death), siRNA D: higher = protection from cisplatin killing
- Rule for the call: 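Each siRNA scores 0 if harmful alone by LDH or WST-1, otherwise +1 if it reduces and -1 if it increases cisplatin killing; a gene is active when both siRNAs agree (sum +2 or -2)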
- Meaning of the calls: active = both siRNAs shift cisplatin killing the same way; inactive = no consistent shift, or siRNA harmful alone
The whole screen tested about 23,000 reagents; shown is a part drawn at random. In the full data, 455 (2%) are marked active. 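Active includes both protection and sensitisation; some change values fall well beyond the stated -50 to +50 range.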 A number with no mark means an inactive call. No sequences are given here. Not given: the amount of reagent.

two-siRNA summed score (-2 to +2),mean protection from cisplatin (shift in death) (%),"protection from cisplatin (shift in death), siRNA C (%)","protection from cisplatin (shift in death), siRNA D (%)",target gene
0,21.5,21.9,21.1,ZNF212
1,16.4,12.2,20.7,LOC200493
1,8.2,-11.5,27.9,LOC388135
1,16.4,17,15.9,ZC3H3
0,-4.4,-2.4,-6.3,F8A1
1,3.2,-11.9,18.4,PRPS1
0,7.6,14.9,0.3,GOLGA1
0,-3.5,-5.8,-1.1,GPR3
0,11.1,18,4.1,RIPPLY3
2 (active),22.4,16.5,28.4,OR51B5

Next part; the last 2 above are carried over.
two-siRNA summed score (-2 to +2),mean protection from cisplatin (shift in death) (%),"protection from cisplatin (shift in death), siRNA C (%)","protection from cisplatin (shift in death), siRNA D (%)",target gene
0,11.1,18,4.1,RIPPLY3
2 (active),22.4,16.5,28.4,OR51B5
0,0.5,-17.4,18.3,F2RL2
-1,-3.3,-11.1,4.5,PPM1F
0,-11.1,-11.6,-10.6,COL21A1
0,-5.2,-14.4,4.1,METTL25B
0,4.9,6.6,3.3,HNRNPA1
0,-12.6,-22.1,-3,MED6
2 (active),18,12.4,23.5,LOC440222
0,8.5,13.1,4,LOC123397
0,23.8,33.7,13.8,TUBB6
0,12.1,14.2,10,ZC2HC1C
1,19.8,23.6,15.9,LOC442016
0,5.3,10.3,0.2,CDK5RAP2
-1,-2.4,-17.6,12.9,CBLL2
